“And” between values parts separate entries of the source, which are not always exact repeats. Equal entries are not always repeated. The source gives many values for each of these; only a part stands here.
System: N. gonorrhoeae strain H041
Assay: In vivo efficacy in the gonorrhea mouse model
Details: individual mice, 2.00E+01 = no CFU/mL recovered, limit of detection

Structure (SMILES) | mouse cfu (Day 0, GEN, listed as GEN) | mouse cfu (Day 1, GEN, listed as GEN) | mouse cfu (Day 2, GEN, listed as GEN) | mouse cfu (Day 3, GEN, listed as GEN) | mouse cfu (Day 4, GEN, listed as GEN) | mouse cfu (Day 0, MBX-4132 10 MPK, 10 mg/kg) | mouse cfu (Day 1, MBX-4132 10 MPK, 10 mg/kg) | mouse cfu (Day 2, MBX-4132 10 MPK, 10 mg/kg) | mouse cfu (Day 3, MBX-4132 10 MPK, 10 mg/kg) | mouse cfu (Day 4, MBX-4132 10 MPK, 10 mg/kg)
CNC(C)C1CCC(N)C(OC2C(N)CC(N)C(OC3OCC(C)(O)C(NC)C3O)C2O)O1 (stereo not shown) [gentamicin, reference compound] | 2.90E+05 CFU/mL and 8.00E+01 CFU/mL and 1.70E+05 CFU/mL and 1.52E+06 CFU/mL and 2.61E+06 CFU/mL and 5.20E+05 CFU/mL and 2.35E+05 CFU/mL and 2.84E+05 CFU/mL and 1.92E+05 CFU/mL and 6.13E+05 CFU/mL and 3.40E+03 CFU/mL and 3.46E+06 CFU/mL and 3.47E+05 CFU/mL and 2.12E+05 CFU/mL and 2.90E+04 CFU/mL and 5.48E+04 CFU/mL and 1.04E+05 CFU/mL and 3.68E+06 CFU/mL and 4.51E+05 CFU/mL and 5.55E+05 CFU/mL | 2.00E+01 CFU/mL (8×) and 5.57E+05 CFU/mL and 9.90E+05 CFU/mL and 2.60E+05 CFU/mL and 2.36E+05 CFU/mL and 1.94E+05 CFU/mL and 4.00E+01 CFU/mL and 4.59E+03 CFU/mL and 4.25E+05 CFU/mL and 8.95E+03 CFU/mL and 1.25E+04 CFU/mL and 8.24E+04 CFU/mL and 1.58E+05 CFU/mL | 2.00E+01 CFU/mL (9×) and 1.32E+05 CFU/mL and 1.77E+03 CFU/mL and 1.88E+03 CFU/mL and 3.00E+02 CFU/mL and 3.35E+03 CFU/mL and 4.00E+01 CFU/mL and 1.05E+04 CFU/mL and 2.50E+03 CFU/mL and 1.06E+03 CFU/mL and 4.49E+05 CFU/mL and 6.60E+02 CFU/mL | 2.00E+01 CFU/mL (15×) and 1.60E+02 CFU/mL and 2.89E+03 CFU/mL and 3.00E+02 CFU/mL and 4.00E+01 CFU/mL and 2.61E+04 CFU/mL | 2.00E+01 CFU/mL (16×) and 3.03E+04 CFU/mL and 2.40E+02 CFU/mL and 8.90E+03 CFU/mL and 4.22E+05 CFU/mL |  |  |  |  | 
O=C(Nc1nnc(-c2ccc(F)cc2)o1)N1CCc2ccccc2C1 [MBX-4132] |  |  |  |  |  | 2.36E+05 CFU/mL and 2.68E+05 CFU/mL and 6.58E+03 CFU/mL and 2.29E+06 CFU/mL and 9.52E+05 CFU/mL and 5.22E+05 CFU/mL and 1.80E+03 CFU/mL and 2.60E+05 CFU/mL and 3.74E+05 CFU/mL and 1.34E+05 CFU/mL and 1.08E+05 CFU/mL and 6.96E+04 CFU/mL and 7.50E+05 CFU/mL and 7.40E+03 CFU/mL and 3.14E+05 CFU/mL and 1.08E+03 CFU/mL and 8.26E+04 CFU/mL and 3.62E+04 CFU/mL and 9.65E+05 CFU/mL and 3.10E+05 CFU/mL | 6.56E+05 CFU/mL and 1.52E+05 CFU/mL and 2.00E+01 CFU/mL (4×) and 3.24E+05 CFU/mL and 5.22E+05 CFU/mL and 6.00E+01 CFU/mL and 8.28E+05 CFU/mL and 2.79E+04 CFU/mL and 3.46E+05 CFU/mL and 3.18E+05 CFU/mL and 1.63E+05 CFU/mL and 9.36E+05 CFU/mL and 5.70E+02 CFU/mL and 7.53E+05 CFU/mL and 3.36E+05 CFU/mL and 3.66E+05 CFU/mL and 4.80E+06 CFU/mL | 1.70E+05 CFU/mL and 1.10E+04 CFU/mL and 2.00E+01 CFU/mL (6×) and 1.39E+04 CFU/mL and 6.24E+04 CFU/mL and 4.00E+01 CFU/mL and 1.14E+05 CFU/mL and 1.73E+05 CFU/mL and 4.14E+05 CFU/mL and 5.64E+03 CFU/mL and 2.82E+05 CFU/mL and 4.55E+05 CFU/mL and 1.56E+04 CFU/mL and 8.87E+05 CFU/mL and 3.12E+04 CFU/mL | 2.00E+01 CFU/mL (11×) and 1.79E+03 CFU/mL and 8.00E+01 CFU/mL and 9.99E+01 CFU/mL and 4.87E+04 CFU/mL and 3.36E+03 CFU/mL and 1.68E+05 CFU/mL and 4.84E+05 CFU/mL and 5.00E+05 CFU/mL and 9.85E+03 CFU/mL | 2.00E+01 CFU/mL (14×) and 1.26E+03 CFU/mL and 3.80E+02 CFU/mL and 6.64E+04 CFU/mL and 9.69E+05 CFU/mL and 2.13E+06 CFU/mL and 1.04E+03 CFU/mL

Source: PMC7979765, “trans-Translation inhibitors bind to a novel site on the ribosome and clear Neisseria gonorrhoeae in vivo” (Nature Communications, 2021)
